PubChem BioAssay AID504764 – Drosophila RNAi Screening Center | 2011

- Screen: 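Genome-wide screen for regulators of Notch-driven gene expression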 (primary screen)
- Cell system: Drosophila Kc167 cells
- Reagent: long dsRNA against Drosophila genes
- Time to read-out: about 5 days (4 days dsRNA, then 24 h after transfection)
- Conditions: transfection of constitutively active membrane-tethered Notch lacking the extracellular domain, read 24 h later
- Detection: 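Firefly luciferase from an E(spl)m3 reporter with active Notch, plus control-promoter and uninduced reporter wells for normalisation; unnormalised counts, duplicate wells a and b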
- Scale: induced reporter light, run 1, well a and induced reporter light, run 1, well b: higher = more light from the Notch target reporter with active Notch; control promoter light, run 1, well a and control promoter light, run 1, well b: higher = more light from the viral control promoter (cell number, transfection, viability); uninduced reporter light, run 1, well a: higher = more light from the Notch target reporter without active Notch
- Active means: 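Wells with low control signal or poorly matching duplicates excluded; duplicates averaged; per source plate, z beyond ±2 for induced/control log2 ratio or beyond ±1.8 for induced/uninduced marks a hit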
- Meaning of the calls: active = modifier hit (raised or lowered Notch signal); inactive = not a hit
In all, the deposit lists about 22,000 reagents; below is an unselected part of those that have a named target and a result. Of all reagents, 403 (1.9%) got an active call. 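Unnormalised raw counts per well; ratio z-scores behind the hit calls and whether each hit raises or lowers signal are not deposited.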 The numbers tell different reagents against one gene apart. Reagent sequences are not shown. Not given: the amount of reagent.

target gene	reagent	induced reporter light, run 1, well a	induced reporter light, run 1, well b	control promoter light, run 1, well a	control promoter light, run 1, well b	uninduced reporter light, run 1, well a	Call
CG17650	1	13615	11105	8988	8395	1290	inactive
CG1677	1	1.11e5	1.27e5	1.97e5	2.35e5	8205	inactive
mTerf3 (mitochondrial transcription termination factor 3)	1	1.42e5	1.16e5	73420	70825	9955	inactive
dap (dacapo)	1	1.85e5	1.95e5	1.68e5	1.83e5	12125	inactive
beat-Vb (beaten path Vb)	1	1.78e5	1.57e5	1.80e5	1.81e5	11005	inactive
beat-Vb (beaten path Vb)	2	2.26e5	2.24e5	3.83e5	3.24e5	13805	inactive
beat-Vb (beaten path Vb)	3	11880	11390	47195	29330	1332	inactive
CG14857	1	2.44e5	2.09e5	2.16e5	2.32e5	15510	inactive
CG15601	1	94860	91615	78335	68050	10615	inactive
CG16853	1	1.14e5	1.28e5	1.26e5	1.46e5	9535	inactive
Ctu1 (Cytosolic thiouridylase subunit 1)	1	1.61e5	1.71e5	2.41e5	2.53e5	15200	inactive
IFT52 (Intraflagellar transport 52)	1	1.23e5	97875	1.19e5	1.35e5	7120	inactive
Aptx (aprataxin)	1	2.50e5	2.02e5	2.35e5	2.59e5	18440	inactive
CG13862	1	1.87e5	1.98e5	2.19e5	2.08e5	13565	inactive
Rab39	1	1.44e5	1.47e5	2.29e5	2.91e5	10300	inactive
CG12182	1	1.18e5	1.15e5	2.15e5	2.16e5	8900	inactive
CG12177	1	26355	22075	26060	31720	1800	inactive
CG34006 (retired record)	1	2.03e5	1.90e5	2.12e5	2.41e5	15315	inactive
Helz (Helicase with zinc finger)	1	87735	1.08e5	71270	77750	7420	inactive
NijB (Ninjurin B)	1	1.79e5	2.11e5	2.63e5	3.08e5	13725	inactive
LPCAT (Lysophosphatidylcholine acyltransferase)	1	1.26e5	1.27e5	2.10e5	1.88e5	8945	inactive
LPCAT (Lysophosphatidylcholine acyltransferase)	2	85355	89285	1.35e5	1.36e5	7265	inactive
CG33773	1	84375	1.06e5	1.24e5	1.04e5	9900	inactive
Ncc69 (sodium chloride cotransporter 69)	1	1.13e5	1.14e5	74845	37085	9015	inactive
Ncc69 (sodium chloride cotransporter 69)	2	1.98e5	1.86e5	2.84e5	3.18e5	14325	inactive
UQCR-14L (Ubiquinol-cytochrome c reductase 14 kDa subunit-like)	1	1.28e5	1.18e5	1.56e5	1.62e5	11280	inactive
UQCR-14L (Ubiquinol-cytochrome c reductase 14 kDa subunit-like)	2						inactive

An excerpt from above, limited to “control promoter light, run 1, well b”:
dap (dacapo): 1.83e5
beat-Vb (beaten path Vb) #1: 1.81e5
beat-Vb (beaten path Vb) #2: 3.24e5
beat-Vb (beaten path Vb) #3: 29330
CG14857: 2.32e5
CG15601: 68050
CG16853: 1.46e5
Ctu1 (Cytosolic thiouridylase subunit 1): 2.53e5
IFT52 (Intraflagellar transport 52): 1.35e5

Next reagents follow.
target gene	reagent	induced reporter light, run 1, well a	induced reporter light, run 1, well b	control promoter light, run 1, well a	control promoter light, run 1, well b	uninduced reporter light, run 1, well a	Call
BOD1 (Biorientation Defective 1)	1	1.85e5	2.05e5	2.39e5	2.28e5	14230	inactive
Bmcp	1	1.32e5	1.19e5	70580	32885	12200	inactive
CG32631	1	1.84e5	1.83e5	2.79e5	2.49e5	13160	inactive
CG10064	1	1.86e5	2.43e5	1.93e5	2.01e5	9660	inactive
MESR4 (Misexpression suppressor of ras 4)	1	1.67e5	1.24e5	1.66e5	1.74e5	11870	inactive
esc (extra sexcombs)	1	1.75e5	1.60e5	1.66e5	1.61e5	17340	inactive
Oat (Ornithine aminotransferase precursor)	1	1.28e5	1.21e5	96370	89125	7555	inactive
CG3437	1	1.30e5	94355	1.60e5	1.92e5	6845	inactive
atms (antimeros)	1	1.47e5	1.62e5	91995	1.25e5	10630	inactive
dpr6 (defective proboscis extension response 6)	1	1.57e5	1.71e5	84595	84450	11420	inactive
dpr6 (defective proboscis extension response 6)	2	1.79e5	1.58e5	2.05e5	1.50e5	7992	inactive
dpr6 (defective proboscis extension response 6)	3	1.58e5	1.62e5	2.49e5	3.11e5	16170	inactive
CG10591	1	80830	84840	97120	35970	8885	inactive
CG11249	1	1.38e5	1.41e5	1.25e5	1.10e5	7375	inactive
CG9083	1	2.54e5	2.88e5	1.78e5	2.13e5	16365	active
RanBPM (Ran-binding protein M)	1	85115	86110	37225	40280	7870	inactive
Mulk (Multi-substrate lipid kinase)	1	2.33e5	2.46e5	2.24e5	2.03e5	17292	inactive
PIG-L (Phosphatidylinositol glycan anchor biosynthesis class L)	1	2.32e5	1.85e5	2.10e5	2.21e5	14665	inactive
CG18557	1	1.51e5	1.02e5	1.09e5	85045	8850	inactive
CG11456	1	1.01e5	92225	62100	85370	7635	inactive
Sec61alpha (Sec61 alpha subunit)	1	2.19e5	2.69e5	2.31e5	2.47e5	15370	inactive
CNBP (CCHC-type zinc finger nucleic acid binding protein)	1	1.69e5	1.45e5	1.36e5	1.21e5	12638	inactive
CNBP (CCHC-type zinc finger nucleic acid binding protein)	2	1.57e5	1.83e5	1.13e5	1.56e5	13685	inactive
salr (spalt-related)	1	1.07e5	1.68e5	65325	1.15e5	17320	inactive
CG2898	1	85030	54560	1.01e5	97485	5730	inactive
Rip11 (Rab11 interacting protein)	1	1.39e5	1.63e5	1.23e5	77305	11878	inactive
CG16782	1	1.13e5	1.05e5	1.76e5	2.27e5	7665	inactive
Acbp6 (Acyl-CoA binding protein 6)	1	2.76e5	1.96e5	3.40e5	2.45e5	11480	inactive
CG8173	1	67355	67955	1.04e5	78625	11120	inactive
Rnp4F (RNA-binding protein 4F)	1	2.48e5	1.90e5	2.51e5	2.50e5	17288	inactive
CG15445	1	71745	81945	46505	42350	5425	inactive
CG17350	1	31735	29575	31905	35695	2655	inactive
for (foraging)	1	33920	28885	21210	20788	4790	inactive
for (foraging)	2	76160	89870	72290	71340	7235	inactive
knk (knickkopf)	1	68025	64850	65745	43505	3200	inactive
nito (spenito)	1	1.60e5	1.98e5	1.19e5	1.09e5	17910	active
nAChRbeta3 (nicotinic Acetylcholine Receptor beta3)	1	2.04e5	2.14e5	2.29e5	2.10e5	17870	inactive
